According to patent US20210063414A1, “METHODS FOR PREVENTING AND/OR TREATING BONE LOSS CONDITIONS BY MODULATING IRISIN” (Dana-Farber Cancer Institute, Inc., priority 2018, published 2021):
No constants are given. Whether binding was seen depends on the method and setting. For some assays here: In cells and extracts the contact can be indirect. Some entries that bind do so weakly or less than the wild type. Tags and fused reporters may be left off the sequences shown.

Protein sequences, listed by entry. Tags and fused reporters are not part of them. Lines headed by an entry give the natural chain unless they say otherwise; changes in a name come on top. Residues count along the entry.
UniProt P43406: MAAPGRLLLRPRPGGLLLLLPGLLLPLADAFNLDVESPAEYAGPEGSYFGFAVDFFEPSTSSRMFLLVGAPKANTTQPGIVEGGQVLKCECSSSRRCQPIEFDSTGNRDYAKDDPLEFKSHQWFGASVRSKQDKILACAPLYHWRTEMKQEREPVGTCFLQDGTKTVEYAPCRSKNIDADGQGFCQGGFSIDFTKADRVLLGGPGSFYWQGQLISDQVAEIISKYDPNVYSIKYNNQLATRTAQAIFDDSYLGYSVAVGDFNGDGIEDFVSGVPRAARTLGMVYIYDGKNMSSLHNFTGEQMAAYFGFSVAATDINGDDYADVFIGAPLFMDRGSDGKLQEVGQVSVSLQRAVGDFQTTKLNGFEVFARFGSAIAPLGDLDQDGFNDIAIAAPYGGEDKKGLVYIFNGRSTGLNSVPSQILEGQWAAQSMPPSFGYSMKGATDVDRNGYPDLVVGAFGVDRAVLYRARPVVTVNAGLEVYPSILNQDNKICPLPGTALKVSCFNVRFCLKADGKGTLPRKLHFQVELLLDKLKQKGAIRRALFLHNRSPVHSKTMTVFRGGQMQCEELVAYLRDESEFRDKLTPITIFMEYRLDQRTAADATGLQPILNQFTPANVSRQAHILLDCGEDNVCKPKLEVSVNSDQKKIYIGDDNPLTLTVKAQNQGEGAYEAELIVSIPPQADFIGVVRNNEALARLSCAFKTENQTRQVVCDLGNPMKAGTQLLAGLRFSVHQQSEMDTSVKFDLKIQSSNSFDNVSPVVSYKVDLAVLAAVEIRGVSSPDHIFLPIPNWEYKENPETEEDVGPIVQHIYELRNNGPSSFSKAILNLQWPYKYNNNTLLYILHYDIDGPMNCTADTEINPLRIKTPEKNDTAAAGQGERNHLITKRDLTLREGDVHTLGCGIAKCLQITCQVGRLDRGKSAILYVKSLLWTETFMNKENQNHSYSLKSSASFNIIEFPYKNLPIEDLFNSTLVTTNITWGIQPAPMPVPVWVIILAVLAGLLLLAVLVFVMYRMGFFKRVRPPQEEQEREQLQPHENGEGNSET
UniProt O70309: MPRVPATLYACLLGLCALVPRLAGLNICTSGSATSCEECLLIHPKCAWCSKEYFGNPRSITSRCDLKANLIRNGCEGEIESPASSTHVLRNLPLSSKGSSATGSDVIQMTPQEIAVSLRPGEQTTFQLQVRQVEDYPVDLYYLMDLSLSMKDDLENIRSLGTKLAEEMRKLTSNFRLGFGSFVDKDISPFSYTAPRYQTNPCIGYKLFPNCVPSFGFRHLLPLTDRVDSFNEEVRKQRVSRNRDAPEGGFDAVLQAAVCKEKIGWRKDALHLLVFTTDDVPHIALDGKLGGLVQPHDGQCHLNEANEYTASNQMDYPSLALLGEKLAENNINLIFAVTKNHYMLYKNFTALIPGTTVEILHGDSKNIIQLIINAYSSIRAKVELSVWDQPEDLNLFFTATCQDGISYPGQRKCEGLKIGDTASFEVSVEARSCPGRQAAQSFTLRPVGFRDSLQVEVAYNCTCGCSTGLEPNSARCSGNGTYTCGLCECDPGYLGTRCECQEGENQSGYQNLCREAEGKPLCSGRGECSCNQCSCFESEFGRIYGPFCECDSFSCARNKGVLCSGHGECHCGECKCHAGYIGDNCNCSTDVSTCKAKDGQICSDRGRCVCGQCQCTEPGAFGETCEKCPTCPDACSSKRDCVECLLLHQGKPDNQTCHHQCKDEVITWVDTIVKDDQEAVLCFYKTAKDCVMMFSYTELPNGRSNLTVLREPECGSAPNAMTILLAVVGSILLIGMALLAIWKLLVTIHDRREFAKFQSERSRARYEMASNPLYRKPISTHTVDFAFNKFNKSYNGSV
UniProt P18084: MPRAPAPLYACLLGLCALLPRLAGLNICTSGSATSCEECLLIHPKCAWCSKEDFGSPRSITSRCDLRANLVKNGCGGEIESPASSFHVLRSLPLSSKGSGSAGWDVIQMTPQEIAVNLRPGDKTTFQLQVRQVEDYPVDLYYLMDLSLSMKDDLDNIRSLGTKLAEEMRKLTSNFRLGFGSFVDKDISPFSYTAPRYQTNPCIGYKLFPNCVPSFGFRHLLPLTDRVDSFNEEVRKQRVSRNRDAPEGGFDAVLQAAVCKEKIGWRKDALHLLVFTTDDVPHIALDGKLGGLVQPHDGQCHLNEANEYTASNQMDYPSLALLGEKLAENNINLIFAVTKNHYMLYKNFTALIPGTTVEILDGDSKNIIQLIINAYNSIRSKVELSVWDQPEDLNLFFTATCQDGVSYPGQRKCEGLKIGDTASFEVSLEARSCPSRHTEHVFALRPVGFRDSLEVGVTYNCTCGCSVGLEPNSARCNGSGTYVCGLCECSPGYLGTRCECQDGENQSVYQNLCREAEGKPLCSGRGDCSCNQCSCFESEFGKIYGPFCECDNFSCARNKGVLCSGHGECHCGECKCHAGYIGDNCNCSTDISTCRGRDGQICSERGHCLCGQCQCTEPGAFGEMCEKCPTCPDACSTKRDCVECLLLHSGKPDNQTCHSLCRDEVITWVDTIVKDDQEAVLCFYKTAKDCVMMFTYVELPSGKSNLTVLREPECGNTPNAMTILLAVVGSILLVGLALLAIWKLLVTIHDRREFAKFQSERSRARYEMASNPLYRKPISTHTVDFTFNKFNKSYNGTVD
UniProt Q9UKX5: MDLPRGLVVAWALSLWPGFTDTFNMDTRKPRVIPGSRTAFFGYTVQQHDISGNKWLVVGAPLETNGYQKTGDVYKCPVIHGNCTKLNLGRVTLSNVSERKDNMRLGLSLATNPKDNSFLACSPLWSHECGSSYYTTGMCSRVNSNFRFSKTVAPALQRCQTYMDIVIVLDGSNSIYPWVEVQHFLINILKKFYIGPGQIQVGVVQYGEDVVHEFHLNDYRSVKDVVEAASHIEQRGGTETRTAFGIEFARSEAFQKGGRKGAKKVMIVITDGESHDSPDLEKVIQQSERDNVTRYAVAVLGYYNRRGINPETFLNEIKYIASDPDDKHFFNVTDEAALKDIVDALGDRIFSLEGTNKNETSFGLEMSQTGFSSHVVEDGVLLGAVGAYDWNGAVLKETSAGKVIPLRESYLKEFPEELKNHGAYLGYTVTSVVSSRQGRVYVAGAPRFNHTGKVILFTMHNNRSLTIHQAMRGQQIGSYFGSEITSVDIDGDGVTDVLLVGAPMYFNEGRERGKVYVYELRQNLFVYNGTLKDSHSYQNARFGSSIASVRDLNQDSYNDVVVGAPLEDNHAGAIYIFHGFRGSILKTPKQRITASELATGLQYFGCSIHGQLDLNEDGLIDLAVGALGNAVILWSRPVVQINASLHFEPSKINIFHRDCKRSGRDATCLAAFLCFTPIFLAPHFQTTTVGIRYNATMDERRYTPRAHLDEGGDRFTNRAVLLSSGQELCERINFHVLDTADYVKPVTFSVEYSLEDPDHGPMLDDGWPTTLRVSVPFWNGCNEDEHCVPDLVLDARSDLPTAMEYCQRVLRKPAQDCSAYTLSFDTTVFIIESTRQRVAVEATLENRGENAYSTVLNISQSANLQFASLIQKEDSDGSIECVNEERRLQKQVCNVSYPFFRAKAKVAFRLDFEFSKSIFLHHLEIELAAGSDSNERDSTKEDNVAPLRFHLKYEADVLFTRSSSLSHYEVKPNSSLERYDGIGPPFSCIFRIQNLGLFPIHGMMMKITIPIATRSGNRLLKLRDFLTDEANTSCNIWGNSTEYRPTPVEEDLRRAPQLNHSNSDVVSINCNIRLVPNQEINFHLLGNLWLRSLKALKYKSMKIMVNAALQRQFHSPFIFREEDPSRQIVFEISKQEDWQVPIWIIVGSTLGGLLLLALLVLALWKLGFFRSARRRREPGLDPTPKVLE
UniProt P05556: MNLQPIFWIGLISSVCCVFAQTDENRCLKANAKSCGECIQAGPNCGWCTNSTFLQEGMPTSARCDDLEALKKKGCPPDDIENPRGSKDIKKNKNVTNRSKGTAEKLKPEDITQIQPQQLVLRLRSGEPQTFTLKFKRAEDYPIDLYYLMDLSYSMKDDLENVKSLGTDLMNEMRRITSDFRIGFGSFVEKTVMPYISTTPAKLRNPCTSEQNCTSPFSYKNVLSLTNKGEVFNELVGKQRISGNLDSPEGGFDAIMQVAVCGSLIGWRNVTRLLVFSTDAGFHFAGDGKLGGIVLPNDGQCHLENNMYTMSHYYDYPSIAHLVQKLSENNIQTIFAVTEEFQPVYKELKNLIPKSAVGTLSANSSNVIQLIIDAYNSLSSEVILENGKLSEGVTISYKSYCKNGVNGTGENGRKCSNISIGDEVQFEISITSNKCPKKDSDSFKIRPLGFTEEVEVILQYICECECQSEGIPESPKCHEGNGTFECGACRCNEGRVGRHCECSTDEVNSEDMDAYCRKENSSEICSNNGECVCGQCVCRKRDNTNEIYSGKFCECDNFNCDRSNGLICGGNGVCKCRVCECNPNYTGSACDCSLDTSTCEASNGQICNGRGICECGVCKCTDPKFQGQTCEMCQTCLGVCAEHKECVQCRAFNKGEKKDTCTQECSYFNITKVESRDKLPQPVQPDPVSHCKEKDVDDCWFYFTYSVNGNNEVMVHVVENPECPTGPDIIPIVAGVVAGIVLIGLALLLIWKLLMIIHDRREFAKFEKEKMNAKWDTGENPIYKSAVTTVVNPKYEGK
UniProt Q13797: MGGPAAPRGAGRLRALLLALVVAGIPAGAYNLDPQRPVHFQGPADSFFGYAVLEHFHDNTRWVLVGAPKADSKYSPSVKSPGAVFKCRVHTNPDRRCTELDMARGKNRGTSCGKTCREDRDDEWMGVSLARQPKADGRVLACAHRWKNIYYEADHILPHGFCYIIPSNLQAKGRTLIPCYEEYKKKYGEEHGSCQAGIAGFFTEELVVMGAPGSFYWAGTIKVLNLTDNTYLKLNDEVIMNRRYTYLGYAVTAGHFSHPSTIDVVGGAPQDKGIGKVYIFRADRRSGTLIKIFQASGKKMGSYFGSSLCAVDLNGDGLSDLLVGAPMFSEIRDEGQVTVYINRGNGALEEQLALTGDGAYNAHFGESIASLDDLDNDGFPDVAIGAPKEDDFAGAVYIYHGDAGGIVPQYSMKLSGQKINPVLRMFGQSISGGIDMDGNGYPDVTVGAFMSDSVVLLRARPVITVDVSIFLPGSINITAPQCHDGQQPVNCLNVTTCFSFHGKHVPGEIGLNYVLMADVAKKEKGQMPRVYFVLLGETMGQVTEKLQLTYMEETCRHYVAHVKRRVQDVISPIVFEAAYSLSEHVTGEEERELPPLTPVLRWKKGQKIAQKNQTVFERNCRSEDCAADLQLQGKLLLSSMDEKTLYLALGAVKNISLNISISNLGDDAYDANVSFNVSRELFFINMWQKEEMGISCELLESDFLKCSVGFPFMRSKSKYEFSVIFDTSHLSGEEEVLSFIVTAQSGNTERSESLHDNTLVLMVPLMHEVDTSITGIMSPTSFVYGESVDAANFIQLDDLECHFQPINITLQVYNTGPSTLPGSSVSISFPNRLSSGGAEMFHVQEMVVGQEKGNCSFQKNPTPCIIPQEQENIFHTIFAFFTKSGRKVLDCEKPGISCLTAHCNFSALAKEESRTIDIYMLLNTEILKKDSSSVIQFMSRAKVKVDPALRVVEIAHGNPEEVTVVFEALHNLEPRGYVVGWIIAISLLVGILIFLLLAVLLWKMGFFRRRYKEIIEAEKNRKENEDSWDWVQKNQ
UniProt P09055, residues 21-798: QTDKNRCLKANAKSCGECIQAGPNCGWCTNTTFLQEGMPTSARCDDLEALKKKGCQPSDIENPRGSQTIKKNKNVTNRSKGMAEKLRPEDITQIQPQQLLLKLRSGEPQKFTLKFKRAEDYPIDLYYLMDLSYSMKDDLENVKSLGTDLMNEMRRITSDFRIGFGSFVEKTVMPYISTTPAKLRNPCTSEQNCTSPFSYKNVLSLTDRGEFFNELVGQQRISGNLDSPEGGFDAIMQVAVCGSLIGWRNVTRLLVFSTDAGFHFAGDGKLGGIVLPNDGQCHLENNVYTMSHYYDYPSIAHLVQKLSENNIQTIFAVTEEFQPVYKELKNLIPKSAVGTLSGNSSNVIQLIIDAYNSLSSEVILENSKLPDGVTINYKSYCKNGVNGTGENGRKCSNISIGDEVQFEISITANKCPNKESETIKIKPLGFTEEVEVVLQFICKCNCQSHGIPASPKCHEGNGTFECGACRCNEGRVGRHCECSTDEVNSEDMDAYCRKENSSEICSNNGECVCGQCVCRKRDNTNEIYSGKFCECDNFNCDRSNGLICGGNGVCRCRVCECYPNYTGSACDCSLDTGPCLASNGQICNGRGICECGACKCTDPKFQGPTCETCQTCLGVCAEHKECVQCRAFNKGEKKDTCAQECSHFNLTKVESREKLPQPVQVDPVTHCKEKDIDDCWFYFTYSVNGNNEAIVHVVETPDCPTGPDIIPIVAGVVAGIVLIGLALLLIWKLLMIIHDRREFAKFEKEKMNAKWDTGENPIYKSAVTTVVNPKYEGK

Assays:
[1] = target: T1, Recombinant Mouse Integrin alpha V beta 5 Protein, CF (R&D Systems, Cat. # 7706-AV-050) (mouse) (UniProt P43406+O70309); assay: co-precipitation: 100 nM flag-tagged irisin with 5 nM his-tag integrins, Ni-NTA agarose, immunoblot
[2] = target: T2, Recombinant Human Integrin alpha V beta 5 Protein, CF (R&D Systems, Cat. # 2528-AV-050) (human) (UniProt P06756+P18084); assay: as above
[3] = target: Recombinant Human Integrin alpha 11 beta 1 Protein, CF (R&D Systems, Cat. # 6357-AB-050) (human) (UniProt Q9UKX5+P05556); assay: co-precipitation: 100 nM flag-tag irisin with 5 nM his-tag integrin, anti-his-tag agarose, anti-flag immunoblot
[4] = target: Recombinant Human Integrin alpha 9 beta 1 Protein, CF (R&D Systems, Cat. # 5438-A9-050) (human) (UniProt Q13797+P05556); assay: as above
[5] = target: T3, Recombinant Human Integrin alpha 1 beta 1 Protein, CF (R&D Systems, Cat. # 7064-AB-025) (human) (UniProt P56199+P05556); assay: as above
[6] = target: T4, Recombinant Human Integrin alpha V beta 1 Protein, CF (R&D Systems, Cat. # 6579-AV-025) (human) (UniProt P06756+P05556); assay: as above
[7] = target: Recombinant Human Integrin alpha 4 beta 1 Protein, CF (R&D Systems, Cat. # 5668-A4-050) (human) (UniProt P13612+P05556); assay: as above
[8] = target: T1, Recombinant Mouse Integrin alpha V beta 5 Protein, CF (R&D Systems, Cat. # 7706-AV-050) (mouse); assay: summary of the co-precipitation and cell experiments
[9] = target: T2, Recombinant Human Integrin alpha V beta 5 Protein, CF (R&D Systems, Cat. # 2528-AV-050) (human); assay: as above
[10] = target: T4, Recombinant Human Integrin alpha V beta 1 Protein, CF (R&D Systems, Cat. # 6579-AV-025) (human); assay: as above
[11] = target: T1, Recombinant Mouse Integrin alpha V beta 5 Protein, CF (R&D Systems, Cat. # 7706-AV-050) (mouse); assay: protein-protein binding assay with purified irisin and integrin complexes
[12] = target: T2, Recombinant Human Integrin alpha V beta 5 Protein, CF (R&D Systems, Cat. # 2528-AV-050) (human); assay: as above
[13] = target: T3, Recombinant Human Integrin alpha 1 beta 1 Protein, CF (R&D Systems, Cat. # 7064-AB-025) (human); assay: as above
[14] = target: Integrin beta-1 (Itgb1) of MLO-Y4 cells (mouse) (UniProt P09055); assay: DTSSP cross-linking on MLO-Y4 cells, quantitative proteomic analysis

| binding [1] | binding [2] | binding [3] | binding [4] | binding [5] | binding [6] | binding [7] | binding [8] | binding [9] | binding [10] | binding [11] | binding [12] | binding [13] | binding [14] | Binder |
| --- | --- | --- | --- | --- | --- | --- | --- | --- | --- | --- | --- | --- | --- | --- |
| binds | binds | binds | binds | binds | binds | binds | binds | binds | binds | binds | binds | binds | – | Flag-tagged mammalian irisin (Enzo life sciences, Cat. # ADI-908-307-3010) (ligand, not shown: small tags and cut ends) DSPSAPVNVTVRHLKANSAVVSWDVLEDEVVIGFAISQQKKDVRMLRFIQEVNTTTRSCALWDLEEDTEYIVHVQAISIQGQSPASEPVLFKTPREAEKMASKNKDEVTMKE |
| – | – | – | – | – | – | – | – | – | – | – | – | – | binds | His-tag recombinant irisin (irisin (human/mouse) with a C-terminal 10 his tag, produced in HEK293 cells) (ligand, not shown: small tags and cut ends) DSPSAPVNVTVRHLKANSAVVSWDVLEDEVVIGFAISQQKKDVRMLRFIQEVNTTTRSCALWDLEEDTEYIVHVQAISIQGQSPASEPVLFKTPREAEKMASKNKDEVTMKE |
